# According to patent publication US5639793A, “Mammalian DNA topoisomerase II inhibitor and method” (The University of North Carolina at Chapel Hill, priority 1995, dated 1997):
# Read-outs that look alike come from different tables or passages of the source.
# How the values were obtained:
# [1] = system: HOS cells resistant to colchicine (HOS colR), expressing p170 glycoprotein; assay: HOS colR cell growth inhibition; assay type: cell-based, human
# Protocol: (§1) Cell growth inhibition assays were performed according to published procedures (Crumpton).
# (§2) The HOS cell growth inhibition assays were done according to a published procedure (Crumpton). All cells were grown in Eagle's minimium essential medium supplemented with 10% fetal bovine serum. Flasks were seeded at a density of 1×10^3 cell/cm^2 for monolayer cultures or 2×10^4 /ml for suspension cultures. Suspension cultures were used immediately for drug addition after dilution to a suitable starting density, and, about 24 hours after seeding, the compounds to be tested were added to the monolayer cultures. […] Control flasks also contained 0.1% DMSO.
# (§3) Colonies of about 50 or more cells were counted and the plating efficiency was calculated as the per cent cells that were able to form colonies (Goz).
# [2] = system: baby hamster kidney (BHK) cells; assay: BHK cell growth inhibition; assay type: cell-based
# Protocol: (§4) Additionally, baby hamster kidney (BHK) cell growth inhibition by these derivatives was investigated.
# as §1, §2, §3
# [3] = system: human osteogenic sarcoma (HOS) cells; assay: HOS cell growth inhibition (antiproliferative activity); assay type: cell-based; details: read-out: EC50, HOS cell replication
# Protocol: as §4, §1, §2, §3
structure (smiles),measurement,setting,value
"COc1cc2c(c(OC)c1OC)-c1ccc(OC)c(=O)cc1[C@@H](NC(C)=O)CC2 [Colchicine, colchicine, reference compound]",EC50,[1]; HOS colR cells,315 µM
same,EC50 for HOS colR cells compared with HOS cells,[1]; HOS colR versus HOS not expressing p170,several orders of magnitude higher
same,EC50,"[2]; Table 1, read-out: BHK--EC50",5 µM
same,EC50,"[2]; read-out: EC50, BHK growth inhibition",5 µM
same,EC50,[3],0.00825 ± 0.00075 µM
